Our source for the T/C values is PubChem BioAssay AID250 (DTP/NCI, 2004).

The list does not hold the whole screen: it is rich in T/C values a quarter to a half above the control, in often repeated tests (any T/C) and in doses without a T/C. Further doses and runs are listed elsewhere. T/C: endpoint of the treated group in % of that of the vehicle group. For survival time, this PubChem deposit counts one and a half times the control or more as active, and values a quarter to a half above the control carry no call in these data; other NCI protocols may use other cut-offs. Schedule codes are those of the source, read here as Q, the interval in days (D) or hours (H), X, the number of doses. Some schedules carry Z or #; the key to these is not given. Some T/C values are followed by the survivors on the day toxicity was checked, most often the fifth; where none is given, no animal had died by that day.

In the experiment the test system is BDF1 mice, L1210 leukemia sc. In words: NCI In Vivo Anticancer Drug Screen. Data for tumor model L1210 Leukemia (subcutaneous) in B6D2F1 (BDF1) mice. Conditions: T/C endpoint: median survival time, higher T/C = longer survival. The gist of the method: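 Tumors were transplanted into mice, the animals were treated with compound, survival or tumor size was then measured, and treated values were divided by vehicle-control values.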

The mark [1] stands for this setting: dose: 180.0 mg/kg/injection, schedule: Q01DX Z (sc), vehicle: methylcellulose (MC).
The mark [2] stands for this setting: dose: 300.0 mg/kg/injection, schedule: Q01DX Z (sc), vehicle: methylcellulose (MC).

Consider `CC(C)CSc1ncnc2nc[nH]c12`, for which the T/C is 140 % of control under setting [1]; 140 % of control [8 of 10 alive] under setting [2]; 140 % of control [9 of 10 alive] (dose: 500.0 mg/kg/injection, schedule: Q01DX Z (sc), vehicle: methylcellulose (MC)); 127 % of control (dose: 833.0 mg/kg/injection, schedule: Q01DX Z (sc), vehicle: methylcellulose (MC)).
For the compound `CCOC1=C(N2CC2)C(=O)C(OCC)=C(N2CC2)C1=O`, the T/C is 136 % of control (dose: 5.0 mg/kg/injection, schedule: Q01DX Z (sc), vehicle: carboxymethylcellulose (CMC)) and 127 % of control (dose: 8.4 mg/kg/injection, schedule: Q01DX Z (sc), vehicle: carboxymethylcellulose (CMC)).
Regarding `CCC(C)SC1=NC=NC2=NC=NC21` (centres undefined), the T/C is 136 % of control (dose: 64.8 mg/kg/injection, schedule: Q01DX Z (sc), vehicle: methylcellulose (MC)); 140 % of control under setting [1]; 127 % of control under setting [2].
For `c1ccc(CNc2ncnc3[nH]ncc23)cc1`, where the note is “dose: 38.9 mg/kg/injection, schedule: Q01DX Z (sc), vehicle: methylcellulose (MC)”, the T/C was 140 % of control.
Consider `CNC=O`, for which the T/C (dose: 518.0 mg/kg/injection, schedule: Q01DX Z (sc), vehicle: saline) is 125 % of control [8 of 10 alive].
For the compound `OC(CBr)C(O)C(O)C(O)CBr` (centres undefined), the T/C was 131 % of control (dose: 300.0 mg/kg/injection, schedule: Q01DX009 (sc), vehicle: other); 130 % of control (dose: 300.0 mg/kg/injection, schedule: Q01DX009 (sc), vehicle: steroid suspending solution); 133 % of control (dose: 300.0 mg/kg/injection, schedule: Q01DX015 (sc), vehicle: other); 131 % of control (dose: 300.0 mg/kg/injection, schedule: Q01DX015 (sc), vehicle: steroid suspending solution); 133 % of control (dose: 500.0 mg/kg/injection, schedule: Q01DX009 (ip), vehicle: steroid suspending solution); 138 % of control (dose: 500.0 mg/kg/injection, schedule: Q01DX009 (sc), vehicle: other). In addition, the T/C runs as follows: (dose: 500.0 mg/kg/injection, schedule: Q01DX009 (sc), vehicle: steroid suspending solution) 135 % of control; (dose: 500.0 mg/kg/injection, schedule: Q01DX015 (sc), vehicle: other) 125 % of control; (dose: 500.0 mg/kg/injection, schedule: Q01DX015 (sc), vehicle: steroid suspending solution) 126 % of control; (dose: 800.0 mg/kg/injection, schedule: Q01DX015 (sc), vehicle: other) 141 % of control; (dose: 800.0 mg/kg/injection, schedule: Q01DX015 (sc), vehicle: steroid suspending solution) 142 % of control; (dose: 833.0 mg/kg/injection, schedule: Q01DX009 (sc), vehicle: other) 130 % of control. Besides, the T/C (dose: 833.0 mg/kg/injection, schedule: Q01DX009 (sc), vehicle: steroid suspending solution) is 130 % of control.
Consider `COC(=O)Nc1nc2ccc(C(=O)c3cccs3)cc2[nH]1`, for which the T/C was 127 % of control [6 of 7 alive] (dose: 50.0 mg/kg/injection, schedule: Q04DX003 (iv), vehicle: other); 128 % of control (dose: 70.0 mg/kg/injection, schedule: Q04DX003 (ip), vehicle: other); 130 % of control (dose: 100.0 mg/kg/injection, schedule: Q04DX003 (ip), vehicle: other).
As for `Nc1nncs1`, the T/C (dose: 200.0 mg/kg/injection, schedule: Q04DX005 (sc), vehicle: Klucel (hydroxypropylcellulose) (HPC), evaluated on day 7) was 140 % of control; the T/C (dose: 200.0 mg/kg/injection, schedule: Q04DX005 (sc), vehicle: Klucel (hydroxypropylcellulose) (HPC), evaluated on day 32) is 135 % of control; the T/C (dose: 400.0 mg/kg/injection, schedule: Q04DX005 (sc), vehicle: Klucel (hydroxypropylcellulose) (HPC), evaluated on day 7) was 140 % of control; the T/C (dose: 400.0 mg/kg/injection, schedule: Q04DX005 (sc), vehicle: Klucel (hydroxypropylcellulose) (HPC), evaluated on day 32) is 135 % of control; the T/C (dose: 800.0 mg/kg/injection, schedule: Q04DX004 (sc), vehicle: water, evaluated on day 7) is 139 % of control; the T/C (dose: 800.0 mg/kg/injection, schedule: Q04DX004 (sc), vehicle: water, evaluated on day 43) was 139 % of control. Further, the T/C by setting is: (dose: 800.0 mg/kg/injection, schedule: Q04DX005 (sc), vehicle: Klucel (hydroxypropylcellulose) (HPC), evaluated on day 7) 133 % of control; (dose: 800.0 mg/kg/injection, schedule: Q04DX005 (sc), vehicle: Klucel (hydroxypropylcellulose) (HPC), evaluated on day 32) 130 % of control; (dose: 1600.0 mg/kg/injection, schedule: Q04DX005 (sc), vehicle: Klucel (hydroxypropylcellulose) (HPC), evaluated on day 7) 136 % of control; (dose: 1600.0 mg/kg/injection, schedule: Q04DX005 (sc), vehicle: Klucel (hydroxypropylcellulose) (HPC), evaluated on day 32) 135 % of control; (dose: 3200.0 mg/kg/injection, schedule: Q04DX005 (sc), vehicle: Klucel (hydroxypropylcellulose) (HPC), evaluated on day 7) 136 % of control; (dose: 3200.0 mg/kg/injection, schedule: Q04DX005 (sc), vehicle: Klucel (hydroxypropylcellulose) (HPC), evaluated on day 32) 135 % of control [7 of 8 alive].
For the compound `O=NN(CCF)C(=O)NC12CC3CC(CC(C3)C1)C2`, the T/C (dose: 39.0 mg/kg/injection, schedule: Q01DX Z (sc), vehicle: carboxymethylcellulose (CMC)) is 138 % of control.
`O[C@H](CN1CC1)[C@@H](O)CN1CC1`: the T/C is, setting by setting: (dose: 0.36 mg/kg/injection, schedule: Q01DX Z (sc), vehicle: saline) 133 % of control; (dose: 0.39 mg/kg/injection, schedule: Q01DX Z (sc), vehicle: saline) 138 % of control; (dose: 1.7 mg/kg/injection, schedule: Q01DX Z (sc), vehicle: saline) 133 % of control; (dose: 1.8 mg/kg/injection, schedule: Q01DX Z (sc), vehicle: saline) 133 % of control.
